Measurements from publication PMC12040169 (PLOS Biology, 2025).
The other results are listed elsewhere or left out.

Test system: T1, CTL2-GFP (C. trachomatis L2/434/Bu, GFP-expressing)
T1 construct: L2/434/Bu, GFP-expressing
Set-up: species or system HeLa; Intracellular C. trachomatis growth in HeLa cells, bulk GFP fluorescence relative to DMSO
Conditions: bulk GFP, single well; 28.5 h, 10 µM; inhibitor

Compared with Cc1nc(-c2ccncc2)c2c(C)nn(-c3ccc(F)cc3)c2n1 [CBK288545], Cc1cc(C)n(CCNCc2cc(-c3ccc(F)cc3)c[nH]c2=O)n1 [CBK284694] is higher in “% of control remaining” value: 104.734% for the first, 154.406% for the second.

First: Cc1cc2nccc(C3CCCN(C(=O)OC(C)(C)C)C3)n2n1 (centres unmarked) [CBK284037]
Second: O=C(Cn1cnc(-c2nccs2)n1)N1CCCCCC1 [CBK306165]
The “% of control remaining” value of the first is lower: 86.97% for the first, 115.628% for the second.

First: Cn1c(=O)n(-c2cccc(Cl)c2)c(=O)n1C [CBK116498]
Second: Cc1nc2cc(Cl)ccc2n1CCO [CBK110738]
The “% of control remaining” value of the first is lower: 104.419% for the first, 163.661% for the second.

First: COC(=O)[C@H]1CN(C(=O)c2scnc2C)C[C@@H]1c1ccc(F)cc1 [CBK283520]
Second: COc1ccc(C(=O)N2C[C@@H]3C[C@H](C2)c2ccc(NC(=O)C4CC4)c(=O)n2C3)cc1 [CBK289072]
The “% of control remaining” value of the first is lower: 71.1553% for the first, 144.206% for the second.

First: CCCCN1CCCC1c1c[nH]c2ccccc12 (centres unmarked) [CBK023773G]
Second: Cc1nc2ccccc2n1CC(=O)NCCN1CCCC1 [CBK267336]
The “% of control remaining” value of the first is higher: 122.819% for the first, 109.597% for the second.

Going from CCCCc1ccc(NC(=O)CSc2nnc(N)s2)c(C)c1 [CBK057659] to Cn1cnnc1SCC(=O)Nc1c(F)cccc1F [CBK295150], the “% of control remaining” value rises from 117.103% to 143.004%.

Going from c1cc(C2CCCCN2Cc2ccc3[nH]ccc3c2)nc(Nc2nccs2)n1 (centres unmarked) [CBK286109] to COc1ccc(CN2CCC[C@H]2c2nc(-c3ccc(OC)nc3)no2)c(O)c1 [CBK288898], the “% of control remaining” value rises from 81.7878% to 124.76%.

Compared with CCOc1ccc(S(=O)(=O)N(C)CC(=O)N2CCN(C)CC2)cc1Cl [CBK269865], CNC(=O)N1CCN(CCOC(c2ccc(F)cc2)c2ccc(F)cc2)CC1 [CBK024948C] is lower in “% of control remaining” value: 147.236% for the first, 136.312% for the second.

Going from O=C(CCCOc1ccccc1)Nc1ccc([N+](=O)[O-])cc1 [CBK263690] to CCCCOc1ccc(NC(=O)NCCc2cccs2)cc1 [CBK045202], the “% of control remaining” value falls from 97.407% to 94.0866%.

First: CN1CCOc2ccccc2C(=O)NC/C=C/CC2(CCCNC2)C1=O (centres unmarked) [CBK292027]
Second: CN1CC2(CCCN(Cc3noc(-c4ccccc4)n3)C2)OC1=O (centres unmarked) [CBK306952]
The “% of control remaining” value of the first is lower: 109.959% for the first, 128.256% for the second.

Compared with Cc1nnc(C(C)Sc2nnc(-c3ccc(F)cc3)n2CC2CCCO2)o1 (centres unmarked) [CBK298298], Cc1ccc(C)c(C2CCCN2C(=O)c2ccc(=O)n(CC(=O)Nc3ccc(F)cc3)c2)c1 (centres unmarked) [CBK286495] is higher in “% of control remaining” value: 101.923% for the first, 125.03% for the second.

First: Cc1ccc(Nc2cc(-c3cccc4cccnc34)ncn2)cc1NS(C)(=O)=O [CBK091152]
Second: Cc1ccc(C(=O)NCCNc2cnccn2)cc1S(C)(=O)=O [CBK246280]
The “% of control remaining” value of the first is higher: 153.119% for the first, 106.048% for the second.

Compared with COc1cc(F)cc(OC2CCNCC2)c1NC(=O)Cc1cn(C)c2ccccc12 [CBK050245T], O=C1NCCN(C(=O)COc2ccc(F)cc2F)C1Cc1ccccc1-c1cccnc1 (centres unmarked) [CBK285832] is lower in “% of control remaining” value: 115.84% for the first, 113.33% for the second.

Going from C=CCNC(=O)N1CC[C@H]2CC(=O)N(Cc3cccnc3)CC[C@H]2C1 [CBK288791] to Nc1cccnc1OCCN1CCN(CC(=O)N2CCCCc3ccccc32)CC1 [CBK007764], the “% of control remaining” value rises from 116.08% to 122.918%.

First: CCP(CC)c1ccc(C(=O)O)cc1 [CBK019342B]
Second: O=C(O)Cc1sc(-c2ccc(Cl)cc2)nc1O [CBK067730]
The “% of control remaining” value of the first is lower: 133.437% for the first, 135.361% for the second.

First: COc1ccc(Oc2cc3n(c(=O)n2)CCc2cc(OC)c(OC)cc2-3)cc1 [CBK291177]
Second: COc1ccc(NS(=O)(=O)c2ccc3c(c2)oc(=O)c2cc(S(=O)(=O)Nc4ccc(OC)cc4)ccc23)cc1 [CBK268439]
The “% of control remaining” value of the first is higher: 144.232% for the first, 84.7783% for the second.

First: CC1(C)CC(=O)C2=C(C1)CC1(C)CC(C)(C)CC2(Nc2ccccn2)C1 (centres unmarked) [CBK022425]
Second: O=C(Nc1ccccn1)Nc1ccccn1 [CBK015518]
The “% of control remaining” value of the first is lower: 95.5464% for the first, 110.226% for the second.

Going from C[C@H](NC(=O)OC(C)(C)C)C(=O)NC[C@H]1CC[C@H](C(=O)O)CC1 [CBK286741] to Cc1c(C(=O)NCCN2CCC(C)CC2)oc2c1C(O)CC(C)(C)C2 (centres unmarked) [CBK282100], the “% of control remaining” value rises from 145.257% to 147.031%.

Compared with COC(=O)Nc1ncc(CN2CCc3ccccc3C2)s1 [CBK268376], Cc1cc(CC(=O)N/N=C/c2ccccc2)[nH]n1 [CBK007500] is lower in “% of control remaining” value: 157.815% for the first, 122.735% for the second.

Going from COc1ccc(-c2ccc(=O)n(CC(=O)NCc3ccc(C(=O)O)cc3)n2)c(F)c1 [CBK286776] to CC1CC(=O)N(c2cccc(C(=O)Nc3cccc(-c4cccc(F)c4)c3)c2)C1=O (centres unmarked) [CBK285734], the “% of control remaining” value falls from 115.494% to 111.094%.

Going from COCCNc1nc(-c2ccc(F)cc2)cnc1N [CBK063591] to COC1C(O)C(CO)OC1n1cnc2c(N)nc(N)nc21 (centres unmarked) [CBK201241], the “% of control remaining” value falls from 132.843% to 128.924%.

First: CCCn1c(O)nnc1-c1cccnc1 [CBK074889]
Second: CCCn1c(C)cc2cc(NC(=O)Cn3ccnc3)ccc21 [CBK281549]
The “% of control remaining” value of the first is lower: 112.902% for the first, 124.905% for the second.

Going from N#CC1=C(N)n2c(s/c(=C\c3ccncc3)c2=O)=C(C#N)C1c1ccncc1 (centres unmarked) [CBK262563] to CC(C)c1ccc(N2C(=O)N[C@@H]3CCN(C(=O)c4cccs4)[C@@H]3C2=O)cc1 [CBK289286], the “% of control remaining” value rises from 100% to 128.558%.

First: O=C1OC(c2ccc(N3C(=O)c4cccc5cccc(c45)C3=O)cc2)(c2ccc(N3C(=O)c4cccc5cccc(c45)C3=O)cc2)c2ccccc21 [CBK261845]
Second: C(=C\c1ccccc1)/Cn1c(COc2ccccc2)nc2ccccc21 [CBK265535]
The “% of control remaining” value of the first is higher: 90.1139% for the first, 84.1182% for the second.

First: COc1cccc(CC(=O)N(CCC#N)Cc2ccco2)c1 [CBK304859]
Second: C=C(C)Cn1c(SCC(C)C)nnc1-c1ccccc1OC(F)(F)F [CBK200080]
The “% of control remaining” value of the first is higher: 98.6179% for the first, 98.1426% for the second.
